Laboratory results: patent US20230248744A1, “25-HYDROXYVITAMIN D2 AND/OR D3 FOR USE IN OBESITY” (CARBOGEN AMCIS B.V., priority 2020, published 2023)
The name of at least one read-out is uncertain.

Assay: Double-blind randomized crossover pharmacokinetic study, single oral 900 μg vitamin D3 or 25(OH)D3
Assay type: in vivo, human
Conditions: FIG. 4
Procedure: The conclusions as presented herein are based on the following experiments: In a double-blinded cross-over study single high dosages (900 μg total in two soft gel capsules containing 450 μg) of either vitamin D3 or 25(OH)D3 were administered to vitamin D-deficient volunteers including healthy controls as well as subjects with a history of malabsorption. At the outset, the BMI was determined. Blood samples were then taken at baseline and at 2, 4, 6, 8, and 12 hours as well as 1, 2, 3, 7, and 14 days after administration (FIG. 2). All the samples were analyzed for their contents in vitamin D3 per se as well as 25(OH)D3. […] In addition, peak levels were more rapidly reached with 25(OH)D3 than with vitamin D3 (see FIG. 5). […]
The pharmacokinetic parameters of orally administered 25(OH)D3 and vitamin D3 (both provided for formulation in form of visually identical soft-gel pills) were studied based on the corresponding serum concentration-time curves in healthy adults and adults with a history of intestinal malabsorption (see FIG. 2). Cinical safety has been evaluated by monitoring serum calcium, phosphorus, parathyroid hormone (PTH) and 25(OH)D levels at the beginning and end of the study. […]
Serum levels of calcium, phosphorus, albumin, creatinine and intact parathyroid hormone (iPTH) were determined at baseline and at the end of each 14-day pharmacokinetic study (see Table 4). […]

In the case of `C=C1CC[C@H](O)C/C1=C/C=C1\CCC[C@]2(C)[C@@H]([C@H](C)CCCC(C)C)CC[C@@H]12` [vitamin D3, cholecalciferol], the “bioavailability (peak level and area under the curve) in subjects with elevated BMI compared to normal subjects (BMI <30)” value is reported as “comparatively strongly reduced”.
